# Reference: patent publication US7368427 (dated 2008)
# Assay: general procedure: Boc solid-phase peptide synthesis; MBHA resin; diisopropylcarbodiimide; HBTU/DIEA
# Settings: whole synthesis, scale 0.20 mmol
substance,measurement,setting,value
"[Aib^8, A6c^32]hGLP-1(7-36)NH2",final HPLC purity,analytical HPLC,>99%
same,isolated mass,,92 mg
